The source of these data is paper PMC11116813.

By UniProt entry, the sequences of proteins in these tests, tags left out.
UniProt P45973: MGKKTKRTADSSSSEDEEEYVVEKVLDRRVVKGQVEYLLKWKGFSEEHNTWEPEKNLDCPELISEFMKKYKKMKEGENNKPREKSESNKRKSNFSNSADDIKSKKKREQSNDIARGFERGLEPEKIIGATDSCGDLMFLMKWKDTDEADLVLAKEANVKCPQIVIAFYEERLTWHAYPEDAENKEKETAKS

No constants are given. Whether binding was seen depends on the method and setting. For some assays here: Binding can be weak; no strength is given. For some assays here: Tags and fused reporters may be left off the sequences shown.

Experiment [1] addresses T1, human INCENP (160-192), untagged version (Tyr-added), GST removed (human) (UniProt Q9NQS7).
T1 sequence: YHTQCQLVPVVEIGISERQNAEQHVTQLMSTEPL
Kind of experiment: ITC; VP-ITC, 10 μM INCENP peptide or fragment in the cell, 100 μM HP1α full-length or CSD dimer in the syringe, 20°C, 20 mM NaPO4 pH 7.0, 150 mM NaCl, 1 mM DTT (Fig. 2D, Fig. 3D and E); one-site model; both purified. (Isothermal titration calorimetry measures the heat released or taken up as one component is titrated into another.)

For experiment [2], the target named is T2, human INCENP (160-210) -6His, GST removed (human) (UniProt Q9NQS7).
T2 sequence: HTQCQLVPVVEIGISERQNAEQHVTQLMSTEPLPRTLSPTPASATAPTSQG
Described as above.

Experiment [3] deals with T1, human INCENP (160-192), untagged version (Tyr-added), GST removed (human). As to the kind of experiment: NMR titration; 15N- or 13C/15N-labelled INCENP fragment (160–210 or 160–192) with unlabelled full-length HP1α or HP1α CSD added stepwise; 1H-15N HSQC, 298 K, 20 mM NaPO4 pH 7.0, 150 mM NaCl, 1 mM DTT, 5% D2O; both purified.
For experiment [4], the target named is T2, human INCENP (160-210) -6His, GST removed (human). Described as above.
In experiment [5] the target is human INCENP (121-178) PVI_3A mutant fragment (human) (UniProt Q9NQS7). Kind of experiment: ITC; INCENP fragments 121–178 (wild type or PVI_3A) and full-length HP1α dimer (Fig. S2E); instrument and buffer not told for this panel; both purified.

In the case of “human HP1α chromoshadow domain (CSD), recombinant (domain or fragment)”, the binding entry in experiment [1], in experiment [2], in experiment [3] and in experiment [4] was “binds” in each case.

Turning to “full-length human HP1α WT (hHP1α), recombinant (from UniProt P45973 1-191)”, in experiment [5], the binding result is recorded as “no binding”.
